Assay results taken from patent US20200340031A1.
Numbering of substitutions follows the chain as printed. Results are given in words; binding and its absence hold for the method and conditions named. Some binding calls cover weakened binding; strength is not graded here.

Chains of the proteins cited; added tags and fusions are not shown. Lines headed by an entry give the natural chain unless they say otherwise; changes in a name come on top.
UniProt Q5VYX0: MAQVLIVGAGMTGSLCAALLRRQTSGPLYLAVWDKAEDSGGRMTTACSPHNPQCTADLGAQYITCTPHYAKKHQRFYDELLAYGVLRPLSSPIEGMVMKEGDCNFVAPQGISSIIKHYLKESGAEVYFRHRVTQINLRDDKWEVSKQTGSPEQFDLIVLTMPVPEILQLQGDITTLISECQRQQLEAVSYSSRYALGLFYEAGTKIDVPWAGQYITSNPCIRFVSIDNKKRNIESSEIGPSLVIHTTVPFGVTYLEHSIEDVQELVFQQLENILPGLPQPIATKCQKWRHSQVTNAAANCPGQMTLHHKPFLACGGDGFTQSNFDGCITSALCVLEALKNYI

Columns and labels:
[1] = target: Recombinant human renalase-1 (RV11), bacterially expressed (human) (UniProt Q5VYX0); assay: Sandwich ELISA, Ren 1D 28-4 as capture, biotinylated Ren 1F 26-1 as detection, RV11 titrated
[2] = target: Recombinant human renalase-1 (RV11), bacterially expressed (human) (UniProt Q5VYX0); assay: Western blot
[3] = target: Recombinant human renalase-1 (RV11), bacterially expressed (human) (UniProt Q5VYX0); assay: sandwich ELISA, capture antibody; detection with biotinylated Ren 1F 26-1
[4] = target: Recombinant human renalase-1 (RV11), bacterially expressed (human) (UniProt Q5VYX0); assay: immunoprecipitation with Actigel-coupled antibody, Western blot read-out
[5] = target: Recombinant human renalase-1 (RV11), bacterially expressed (human) (UniProt Q5VYX0); assay: Western blot of recombinant protein
[6] = target: Recombinant human renalase-1 (RV11), bacterially expressed (human) (UniProt Q5VYX0); assay: Immunoprecipitation of RV11 with antibody on Actigel beads, Western blot with Ren1D 28-4
[7] = target: Recombinant human renalase-1 (RV11), bacterially expressed (human) (UniProt Q5VYX0); assay: sandwich ELISA, biotinylated detection antibody at 4 µg/mL; capture with Ren 1D 28-4
[8] = target: Recombinant human renalase-1 (RV11), bacterially expressed (human) (UniProt Q5VYX0); assay: Sandwich ELISA, polyclonal #3009 as capture, biotinylated 1F 26-1 as detection; axis printed as RV11 in serum
[9] = target: Recombinant human renalase-1 (RV11), bacterially expressed (human) (UniProt Q5VYX0); assay: standard curve with acid-pretreated recombinant renalase in the sandwich ELISA with m42-RNLS capture

Measured: binding

B1: anti-1D epitope monoclonal antibody 1D-28-4 (antibody, V domains shown)
VH: QSVEESGGRLVTPGTPLTLTCTVSGFSLSSFAVGWVRQAPGKGLEYIGIISSVGITRYASWAAGRFTISKTSTTVDLKITSPTTEDTATYFCARYGYSGDVNRLDLWGQGTLVTVSS
VL: AQVLTQTASPVSAAVGGTVTINCQASQSVYDNNNLAWYQQKPGQPPKQLIYGASTLASGVSSRFKGSGSGTQFTLTISGVQCDDAATYYCLGEFSCSSADCFAFGGGTEVVVKG
binds: [1] | [2] | [3] | [4] | [5] | [6]

B2: anti-1D epitope monoclonal antibody 1D-37-10 (antibody, V domains shown)
VH: QSVEESGGRLVTPGGSLTLTCTVSGFSLSDYAIIWVRQAPGKGLEYIAIIGSSGDTFYATWAKGRFTISKTSTTVDLKMTSLTAADTATYFCAPRYAGTTDYHDAFDPWGPGTLVTVSS
VL: EVVMTQTPASMEAPMGGTVTIKCQASQNIYNYLSWYQQKPGQPPKLLVYKASTLTSGVPSRFKGSGSGTQFTLTISDLECADAATYYCQINYSIYNHYNIIFGGGTEVVVKG
binds: [2] | [4] | [5] | [6]

B3: anti-1F epitope monoclonal antibody 1F-26-1 (antibody, V domains shown)
VH: QSVKESEGGLFKPTDTLTLTCTVSGFSLSSYGVTWVRQAPGNGLEWIGLIGDRGTTFYASWAKSRSTITRNTNLNTVTLKMTRLTAADTATYFCARGSGYGARIWGPGTLVTVSS
VL: AQVLTQTPSPVSAAVGGTVTINCQSSQSVYKNNYLAWYQQKPGQPPKLLIYETSKLASGVPPRFSGSGSGTQFTLTISSVQCDDAATYYCQGGYSGVDFMAFGGGTEVVVKG
binds: [1] | [2] | [4] | [7] | [5] | [8] | [6]

B4: anti-1F epitope monoclonal antibody 1F-42-7 (antibody, V domains shown)
VH: B3 VH with S29T, S30T, F57Y, A62V, K63N, S64G, S114A
VL: B3 VL with V11M, V15L, S28T, K31N, A36S, A57S
binds: [2] | [9] | [4] | [6]
